For at least one compound, name, drawing or mass did not settle the structure.
Test system: type I IFN signaling in BMDMs
Format: cell-based, mouse
Conditions: wild-type BMDMs treated with Stat1 inhibitor fludarabine

Question: How did the “ISG expression (Oas1, Mx2, Cxcl10) with desaminotyrosine and poly(IC)” value turn out when `Nc1nc(F)nc2c1ncn2[C@@H]1O[C@H](CO)[C@@H](O)[C@@H]1O` [Fludarabine, reference compound] was run?
Answer: This finding was confirmed

— patent publication US11058653B2, “Compositions comprising desaminotyrosine and uses thereof to enhance type I interferon stimulation” (Washington University, priority 2016, dated 2021)
